# Experimental data as given in patent US8828401B2 (Pfizer Inc., priority 2011, dated 2014).
# Experiment: general procedure: solution-phase peptide synthesis; HATU
# [1] = coupling step, HPLC (Protocol A), TFA salt
# [2] = late stage modification step, TFA salt
substance,measurement,setting,value
"N-{(2R,3R)-3-methoxy-3-[(2S)-1-{(3R,4S,5S)-3-methoxy-5-methyl-4-[methyl(L-valyl)amino]heptanoyl}pyrrolidin-2-yl]-2-methylpropanoyl}-L-phenylalanine",step yield,late stage modification step,94%
"2-methylalanyl-N-{(3R,4S,5S)-1-[(2S)-2-{(3R,4R,7S)-7-benzyl-4-methyl-18-[(4S,5R)-5-methyl-2-oxoimidazolidin-4-yl]-5,8,13-trioxo-2-oxa-6,9,12-triazaoctadecan-3-yl}pyrrolidin-1-yl]-3-methoxy-5-methyl-1-oxoheptan-4-yl}-N-methyl-L-valinamide",step yield,late stage modification step,50%
"N,2-dimethylalanyl-N-{(1S,2R)-4-{(2S)-2-[(1R,2R)-3-{[(1R,2S)-2-hydroxy-1-methyl-2-phenylethyl]amino}-1-methoxy-2-methyl-3-oxopropyl]pyrrolidin-1-yl}-2-methoxy-1-[(1S)-1-methylpropyl]-4-oxobutyl}-N-methyl-L-valinamide, trifluoroacetic acid salt",step yield,"coupling step, TFA salt",74%
"N,2-dimethylalanyl-N-{(1S,2R)-4-{(2S)-2-[(1R,2R)-3-{[(1S)-1-carboxy-2-phenylethyl]amino}-1-methoxy-2-methyl-3-oxopropyl]pyrrolidin-1-yl}-2-methoxy-1-[(1S)-1-methylpropyl]-4-oxobutyl}-N-methyl-L-valinamide",step yield,coupling step,64%
"methyl N-[(2R,3R)-3-{(2S)-1-[(3R,4S,5S)-4-{[N-(3-amino-2,2-dimethylpropanoyl)-L-valyl](methyl)amino}-3-methoxy-5-methylheptanoyl]pyrrolidin-2-yl}-3-methoxy-2-methylpropanoyl]-L-phenylalaninate",step yield,late stage modification step,56%
"2-methyl-L-prolyl-N-[(3R,4S,5S)-1-{(2S)-2-[(1R,2R)-3-{[(1S,2R)-1-hydroxy-1-phenylpropan-2-yl]amino}-1-methoxy-2-methyl-3-oxopropyl]pyrrolidin-1-yl}-3-methoxy-5-methyl-1-oxoheptan-4-yl]-N-methyl-L-valinamide, trifluoroacetic acid salt",final HPLC purity,[1],>98%
same,step yield,"coupling step, TFA salt",86%
"2-methylalanyl-N-[(3R,4S,55)-1-{(2S)-2-[(1R,2R)-3-{[2-(cyclohepta-2,4,6-trien-1-yl)ethyl]amino}-1-methoxy-2-methyl-3-oxopropyl]pyrrolidin-1-yl}-3-methoxy-5-methyl-1-oxoheptan-4-yl]-N-methyl-L-valinamide",step yield,late stage modification step,85%
"N,2-dimethylalanyl-N-{(1S,2R)-4-{(2S)-2-[(1R,2R)-3-{[(1S)-1-benzyl-2-(diethylamino)-2-oxoethyl]amino}-1-methoxy-2-methyl-3-oxopropyl]pyrrolidin-1-yl}-2-methoxy-1-[(1S)-1-methylpropyl]-4-oxobutyl}-N-methyl-L-valinamide, trifluoroacetic acid salt",step yield,[2],30%
"1,2-dimethyl-L-prolyl-N-[(3R,4S,5S)-1-{(2S)-2-[(1R,2R)-2-carboxy-1-methoxypropyl]pyrrolidin-1-yl}-3-methoxy-5-methyl-1-oxoheptan-4-yl]-N-methyl-L-valinamide",step yield,coupling step,33%
same,final HPLC purity,"coupling step, HPLC (Protocol A)",>97%
"N^2-[(1-aminocyclopentyl)carbonyl]-N-[(3R,4S,5S)-3-methoxy-1-{(2S)-2-[(1R,2R)-1-methoxy-2-methyl-3-{[(1S)-2-phenyl-1-(1,3-thiazol-2-yl)ethyl]amino}-3-thioxopropyl]pyrrolidin-1-yl}-5-methyl-1-oxoheptan-4-yl]-N-methyl-L-valinamide",step yield,late stage modification step,61%
same,final HPLC purity,"late stage modification step, HPLC (Protocol A)",>72%
"2-methyl-L-prolyl-N-[(3R,4S,5S)-1-{(2S)-2-[(1R,2R)-3-{[2-(cyclohepta-2,4,6-trien-1-yl)ethyl]amino}-1-methoxy-2-methyl-3-oxopropyl]pyrrolidin-1-yl}-3-methoxy-5-methyl-1-oxoheptan-4-yl]-N-methyl-L-valinamide, formic acid salt",final HPLC purity,"late stage modification step, HPLC Protocol U",purity >90%
same,step yield,"late stage modification step, over two steps",57% over two steps
"2-methylalanyl-N-[(3R,4S,5S)-3-methoxy-1-{(2S)-2-[(1R,2R)-1-methoxy-3-{[(2S)-1-methoxy-1-oxo-3-phenylpropan-2-yl]amino}-2-methyl-3-thioxopropyl]pyrrolidin-1-yl}-5-methyl-1-oxoheptan-4-yl]-N-methyl-L-valinamide, hydrochloride salt",step yield,"late stage modification step, hydrochloride salt",70%
"N-[(9H-fluoren-9-ylmethoxy)carbonyl]-N,2-dimethylalanyl-N-[(3R,4S,5S)-1-{(2S)-2-[(1R,2R)-3-{[(1S)-1-carboxy-2-phenylethyl]amino}-1-methoxy-2-methyl-3-oxopropyl]pyrrolidin-1-yl}-3-methoxy-5-methyl-1-oxoheptan-4-yl]-N-methyl-L-valinamide",step yield,coupling step,41%
"N˜2˜-[2,2-dimethyl-3-(methylamino)propanoyl]-N-{(1S,2R)-2-methoxy-4-{(2S)-2-[(1R,2R)-1-methoxy-2-methyl-3-oxo-3-{[(1S)-2-phenyl-1-(1,3-thiazol-2-yl)ethyl]amino}propyl]pyrrolidin-1-yl}-1-[(1S)-1-methylpropyl]-4-oxobutyl}-N-methyl-L-valinamide",step yield,"coupling step, TFA salt",41%
"(2S)—N-[(2S)-1-{[(3R,4S,5S)-3-methoxy-1-{(2S)-2-[(1R,2R)-1-methoxy-2-methyl-3-oxo-3-{[(1S)-2-phenyl-1-(1,3-thiazol-2-yl)ethyl]amino}propyl]pyrrolidin-1-yl}-5-methyl-1-oxoheptan-4-yl](methyl)amino}-3-methyl-1-oxobutan-2-yl]",step yield,late stage modification step,61%
same,final HPLC purity,"late stage modification step, HPLC Protocol T",96%
"tert-butyl (2S)-2-{[(2S)-1-{[(3R,4S,5S)-3-methoxy-1-{(2S)-2-[(1R,2R)-1-methoxy-2-methyl-3-oxo-3-{[(1S)-2-phenyl-1-(1,3-thiazol-2-yl)ethyl]amino}propyl]pyrrolidin-1-yl}-5-methyl-1-oxoheptan-4-yl](methyl)amino}-3-methyl-1-oxobutan-2-yl]carbamoyl}",step yield,coupling step,62%
same,final HPLC purity,"coupling step, HPLC Protocol V",95%
"N,2-dimethylalanyl-N-{(1S,2R)-4-{(2S)-2-[(1R,2R)-3-{[(1S)-2-amino-1-benzyl-2-oxo ethyl]amino}-1-methoxy-2-methyl-3-oxopropyl]pyrrolidin-1-yl}-2-methoxy-1-[(1S)-1-methylpropyl]-4-oxobutyl}-N-methyl-L-valinamide, trifluoroacetic acid salt",step yield,[2],20%
"(2R)—N-[(2S)-1-{[(3R,4S,5S)-1-{(2S)-2-[(1R,2R)-3-{[2-(cyc lohepta-2,4,6-trien-1-yl)ethyl]amino}-1-methoxy-2-methyl-3-oxopropyl]pyrrolidin-1-yl}-3-methoxy-5-methyl-1-oxoheptan-4-yl](methyl)amino}-3-methyl-1-oxobutan-2-yl]",step yield,late stage modification step,83%
same,crude HPLC purity,"late stage modification step, HPLC Protocol U, hydrochloride salt",90%
"N-[(3R,4S,5S)-3-methoxy-1-{(2S)-2-[(1R,2R)-1-methoxy-2-methyl-3-oxo-3-{[(1S)-2-phenyl-1-(1,3-thiazol-2-yl)ethyl]amino}propyl]pyrrolidin-1-yl}-5-methyl-1-oxoheptan-4-yl]-N-methyl-L-valinamide",step yield,late stage modification step,30%
"methyl N-{(2R,3R)-3-methoxy-3-[(2S)-1-{(3R,4S,5S)-3-methoxy-5-methyl-4-[methyl(N-{[(2S)-2-methylpiperidin-2-yl]carbonyl}-L valyl)amino]heptanoyl}pyrrolidin-2-yl]-2-methylpropanoyl}-L-phenylalaninate, trifluoroacetic acid salt",final HPLC purity,[1],>99%
same,step yield,"coupling step, TFA salt",49%
